Data as given in PubChem BioAssay AID1259308 (NCATS, 2017)
The deposit covers about 59,000 reagents; shown is an unselected part. In the full data, about 1,510 (2.6%) are marked active. 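Calls use total luciferase alone and ignore viability, so some active siRNAs may act by altering cell number.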 A number with no mark means an inactive call. Further read-outs or replicates are left out here.

- Screen: 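Genes whose loss raises luciferase production in HEK293 cells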 (primary screen)
- Cells: human HEK293 embryonic kidney cells stably expressing firefly luciferase (HEK-CMV-Luc2-Hygro)
- Reagent: single siRNA against human genes, 0.8 pmol siRNA per well
- Duration: 72 h
- Detection: 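Luciferase light (ONE-Glo) measured on one replicate plate set and viability (CellTiter-Glo) on the other, scaled to a negative control siRNA, with robust z-scores and luciferase per cell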
- Reading the numbers: total luciferase, z-score and total luciferase, % of control: higher = more reporter protein produced
- Rule for the call: 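Active when the median/MAD z-score for overall luciferase is greater than 3; a gene was taken forward for validation with new siRNAs if at least two of its three siRNAs passed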
- Calls: active = raised luciferase; inactive = no rise

| gene knocked down | PubChem SID | total luciferase, z-score | total luciferase, % of control |
| --- | --- | --- | --- |
| TRAF6 (TNF receptor associated factor 6) | SID160718330 | 3.52 (active) | 152 |
| TRAF6 (TNF receptor associated factor 6) | SID160718331 | 1.33 | 108 |
| TRAF6 (TNF receptor associated factor 6) | SID160718332 | 1.04 | 103 |
| FKBP6P2 (FKBP6 pseudogene 2) | SID160768323 | 1.07 | 103 |
| FKBP6P2 (FKBP6 pseudogene 2) | SID160768324 | 0.0173 | 82.2 |
| FKBP6P2 (FKBP6 pseudogene 2) | SID160768325 | -0.0799 | 80.3 |
| GLT8D2 (glycosyltransferase 8 domain containing 2) | SID160731989 | -0.268 | 76.6 |
| GLT8D2 (glycosyltransferase 8 domain containing 2) | SID160751146 | 4.67 (active) | 175 |
| GLT8D2 (glycosyltransferase 8 domain containing 2) | SID160751147 | -0.368 | 74.6 |
| DIS3L2 (DIS3 like 3'-5' exoribonuclease 2) | SID160756876 | -3 | 22.2 |
| DIS3L2 (DIS3 like 3'-5' exoribonuclease 2) | SID160756877 | 0.248 | 86.8 |
| DIS3L2 (DIS3 like 3'-5' exoribonuclease 2) | SID160756879 | -0.918 | 63.6 |
| ZFAND6 (zinc finger AN1-type containing 6) | SID160741739 | -2.1 | 40.1 |
| ZFAND6 (zinc finger AN1-type containing 6) | SID160741740 | 2.41 | 130 |
| ZFAND6 (zinc finger AN1-type containing 6) | SID160741742 | 2.17 | 125 |

The list goes on, starting with the last 3 of the part before.
| gene knocked down | PubChem SID | total luciferase, z-score | total luciferase, % of control |
| --- | --- | --- | --- |
| ZFAND6 (zinc finger AN1-type containing 6) | SID160741739 | -2.1 | 40.1 |
| ZFAND6 (zinc finger AN1-type containing 6) | SID160741740 | 2.41 | 130 |
| ZFAND6 (zinc finger AN1-type containing 6) | SID160741742 | 2.17 | 125 |
| ZNF354B (zinc finger protein 354B) | SID160755604 | 1.18 | 105 |
| ZNF354B (zinc finger protein 354B) | SID160755605 | 0.194 | 85.7 |
| ZNF354B (zinc finger protein 354B) | SID160755606 | 0.181 | 85.5 |
| ZYX (zyxin) | SID160719349 | 2.59 | 133 |
| ZYX (zyxin) | SID160719350 | 0.55 | 92.8 |
| ZYX (zyxin) | SID160731902 | -0.638 | 69.2 |
| MICOS13 | SID160724774 | 0.584 | 93.5 |
| MICOS13 | SID160724775 | 0.184 | 85.6 |
| MICOS13 | SID160724776 | 0.274 | 87.3 |
| SULT2A1 (sulfotransferase family 2A member 1) | SID160717537 | 6.59 (active) | 213 |
| SULT2A1 (sulfotransferase family 2A member 1) | SID160717538 | -0.195 | 78 |
| SULT2A1 (sulfotransferase family 2A member 1) | SID160717539 | -1.27 | 56.7 |
| CBS (cystathionine beta-synthase) | SID160741604 | -1.96 | 42.9 |
| CBS (cystathionine beta-synthase) | SID160741711 | -0.218 | 77.5 |
| CBS (cystathionine beta-synthase) | SID160741815 | -1.19 | 58.1 |
| RBM4B (RNA binding motif protein 4B) | SID160751399 | 0.0375 | 82.6 |
| RBM4B (RNA binding motif protein 4B) | SID160751400 | -0.271 | 76.5 |
| RBM4B (RNA binding motif protein 4B) | SID160751401 | -0.684 | 68.3 |
| RIIAD1 | SID160732977 | -0.489 | 72.2 |
| RIIAD1 | SID160763353 | 0.974 | 101 |
| RIIAD1 | SID160763355 | -0.505 | 71.8 |
| CYP1B1 (cytochrome P450 family 1 subfamily B member 1) | SID160751252 | 0.946 | 101 |
| CYP1B1 (cytochrome P450 family 1 subfamily B member 1) | SID160751262 | 2.06 | 123 |
| CYP1B1 (cytochrome P450 family 1 subfamily B member 1) | SID160751271 | 0.388 | 89.6 |
